From patent publication US20180169082A1 (priority 2014, published 2018)
Where a name gives a salt, the structure may show the parent alone.

Columns and labels:
[1] = Angle of repose / powder flow of granules; format: physicochemical
Excerpt: The angle of repose may be used to characterize the flow properties of solids. Angle of repose is a characteristic related to interparticulate friction or resistance to movement between particles. The angle of repose is the constant, three-dimensional angle (relative to the horizontal base) assumed by a cone-like pile of material formed by any of several different methods. A variety of angle of repose test methods arc described in the literatue. The most common methods for determining the static angle of repose can be classified on the basis of the following two important experimental variables: (1) The height of the “funnel” through which the powder passes may be fixed relative to the base, or the height may be varied as the pile forms and (2) the base upon which the pile forms may be of fixed diameter or the diameter of the powder cone may be allowed to vary as the pile forms.
A slightly larger batch (Batch 1086-140-10) was made and granules were encapsulated in size 4 capsule shells. Weight variation of capsules of this batch was found within acceptable range of ±10%.

[2] = Bulk and tap density of granules or powder; format: physicochemical

With COc1cc2c(cc1OC)C(=O)C(CC1CCN(Cc3ccccc3)CC1)C2 (centres unmarked) [Donepezil Drug Substance, donepezil hydrochloride] the “Angle of repose (requires tapping)” value [1] was greater than 50.2, the Bulk density [2] was 0.14 g/mL and the “Compressibility (t-b)/t” value [2] was 70. The “Hausener ratio (Tap/Bulk)” value [2] was 3.29 and the Tap density [2] was 0.46 g/mL.
